Assay results from patent publication US20030125296.

The chains behind the UniProt entries cited, without tags or fusion partners. A line that says so, or that is headed by a name, gives the form on record, which may keep a tag or linker.
UniProt Q5ZQU0, other isoform, or with tags, fused parts or gaps: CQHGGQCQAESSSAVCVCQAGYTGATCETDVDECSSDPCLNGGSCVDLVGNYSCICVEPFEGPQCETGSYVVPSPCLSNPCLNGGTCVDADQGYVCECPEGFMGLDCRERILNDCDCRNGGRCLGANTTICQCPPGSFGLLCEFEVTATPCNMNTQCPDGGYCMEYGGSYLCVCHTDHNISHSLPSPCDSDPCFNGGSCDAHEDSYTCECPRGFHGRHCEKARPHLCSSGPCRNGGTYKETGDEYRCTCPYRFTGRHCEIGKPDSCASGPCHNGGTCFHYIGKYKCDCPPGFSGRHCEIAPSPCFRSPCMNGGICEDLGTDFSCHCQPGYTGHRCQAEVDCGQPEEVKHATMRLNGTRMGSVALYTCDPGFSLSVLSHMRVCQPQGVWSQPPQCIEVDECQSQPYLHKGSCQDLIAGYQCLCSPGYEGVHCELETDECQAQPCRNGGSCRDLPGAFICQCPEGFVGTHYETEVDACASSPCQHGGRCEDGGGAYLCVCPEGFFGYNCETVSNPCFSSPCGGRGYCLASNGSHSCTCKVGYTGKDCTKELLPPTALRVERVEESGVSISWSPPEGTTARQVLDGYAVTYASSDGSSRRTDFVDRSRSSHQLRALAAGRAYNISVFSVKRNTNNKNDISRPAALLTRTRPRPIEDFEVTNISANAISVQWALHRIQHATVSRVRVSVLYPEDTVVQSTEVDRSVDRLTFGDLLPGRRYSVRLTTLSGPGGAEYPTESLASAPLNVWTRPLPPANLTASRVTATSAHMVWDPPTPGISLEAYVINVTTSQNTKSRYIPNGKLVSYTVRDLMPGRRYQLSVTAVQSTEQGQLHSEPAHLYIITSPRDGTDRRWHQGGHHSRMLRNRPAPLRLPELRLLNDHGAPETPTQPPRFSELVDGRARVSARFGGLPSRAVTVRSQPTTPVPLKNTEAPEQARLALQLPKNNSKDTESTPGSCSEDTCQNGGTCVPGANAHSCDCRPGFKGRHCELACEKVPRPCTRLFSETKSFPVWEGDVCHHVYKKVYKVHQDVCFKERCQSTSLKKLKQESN

Assays:
[1] = biological target: IRDBP-1 in hepatic nuclear extract (Rattus norvegicus) (UniProt Q5ZQU0); assay: EMSA; conditions: shifted band reactive with anti-IRDBP-1 cAb, protein in an extract
[2] = tested on: HBP1; assay: one hybrid; conditions: isolated from yeast one-hybrid screen with 3 copies of IRE; protein in cells; label: 32P
[3] = tested on: HBP1; assay: activity in cells; conditions: CHO, IGFBP-1 IRE luciferase activated by HBP1; reduced by IRDBP-1 cotransfection; protein in cells; only the site is given
[4] = tested on: Sp1; assay: EMSA; conditions: nuclear extract, band recognised by anti-Sp1; protein in an extract

| Sequence | binding result [1] | binding result [2] | activity on this sequence [3] | binding result [4] |
| --- | --- | --- | --- | --- |
| AATTCAAGGGTATCCAGGAAAGTCTCCTTCAAG (double strand) [IGFBP-3 IRE oligo (Example 7)] | binds | – | – | – |
| AATTCAAGGGTATCCAGGAAAGTCTCC (double strand) [IGFBP-3 IRE -1150/-1117] | – | binds | – | – |
| GTTTGTTTTGCTAGT (double strand) [IGFBP-1 IRE] | binds | – | active | – |
| GCCTCATTATTCCTGCCCACCAAT (double strand) [IGF-1 IRE] | binds | – | – | binds |

For at least one entry, the source does not settle the construct or the ends of the probe. For part of these data: Where cells or extracts were used, other partners may take part.
